PubChem BioAssay AID652272, Drosophila RNAi Screening Center – 2013
Screen: 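Finding fly genes that regulate Hedgehog signal transduction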 (primary screen). System: Drosophila clone 8 (Cl8) cells. Knock-down reagent: long dsRNA against Drosophila genes. Measurement: 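Firefly light from a Hedgehog-responsive ptc promoter reporter and Renilla reference light, both read on a plate reader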. Reading the numbers: firefly Hh reporter signal: higher = more ptc reporter light; Renilla reference signal: higher = more Renilla control light. Call rule: 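Hit when the z-score averaged over two replicates is under -2 or over +3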. Calls: active = hit: reporter lowered or raised; inactive = not a hit.
The deposit covers about 21,000 reagents; below is an unselected part of those with a known target gene and a result. Of all reagents, 503 (2.4%) are marked active. 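Raw plate light values, not normalised; calls rest on replicate z-scores that were not deposited; hits include reporter decreases as well as increases.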 Names joined by + are all predicted targets of the reagent. Not stated in the record: the amount of reagent, the time to read-out.

What is on record for ACXE (Adenylyl cyclase X E) [DRSC00847]?
firefly Hh reporter signal, replicate 1: 1.16e5; firefly Hh reporter signal, replicate 2: 44192; Renilla reference signal, replicate 1: 2998; Renilla reference signal, replicate 2: 3881; Outcome: inactive

Which result is listed for CG31126 [DRSC14623]?
firefly Hh reporter signal, replicate 1: 6.28e5; firefly Hh reporter signal, replicate 2: 1.21e5; Renilla reference signal, replicate 1: 34473; Renilla reference signal, replicate 2: 3515; Outcome: inactive

With CG33136 [DRSC05744], how do the results read?
firefly Hh reporter signal, replicate 1: 1.23e5; firefly Hh reporter signal, replicate 2: 1.41e5; Renilla reference signal, replicate 1: 3555; Renilla reference signal, replicate 2: 7316; Outcome: inactive

For CG12481 [DRSC19461], how do the results read?
firefly Hh reporter signal, replicate 1: 48871; firefly Hh reporter signal, replicate 2: 1.67e5; Renilla reference signal, replicate 1: 1344; Renilla reference signal, replicate 2: 6576; Outcome: inactive

What is on record for gro (groucho) [DRSC16962]?
firefly Hh reporter signal, replicate 1: 1.02e5; firefly Hh reporter signal, replicate 2: 96020; Renilla reference signal, replicate 1: 2779; Renilla reference signal, replicate 2: 2546; Outcome: inactive

With Ekar (Eye-enriched kainate receptor) [DRSC17161], what does the deposit list?
firefly Hh reporter signal, replicate 1: 67460; firefly Hh reporter signal, replicate 2: 1.99e5; Renilla reference signal, replicate 1: 2387; Renilla reference signal, replicate 2: 7620; Outcome: inactive

For CG11180 [DRSC06055], what does the deposit list?
firefly Hh reporter signal, replicate 1: 1.28e5; firefly Hh reporter signal, replicate 2: 75659; Renilla reference signal, replicate 1: 6773; Renilla reference signal, replicate 2: 4089; Outcome: inactive

For CR42546 (pseudo) [DRSC03711], what does the deposit list?
firefly Hh reporter signal, replicate 1: 84720; firefly Hh reporter signal, replicate 2: 70956; Renilla reference signal, replicate 1: 1840; Renilla reference signal, replicate 2: 6553; Outcome: inactive

Which result is listed for CG33255 (retired record) + CR42842 + hpRNA:CR32205 + 1 more [DRSC09617]?
firefly Hh reporter signal, replicate 1: 2.75e5; Renilla reference signal, replicate 1: 6433; Outcome: inactive

How did the screen score Cad74A (Cadherin 74A) [DRSC10636]?
firefly Hh reporter signal, replicate 1: 1.21e5; Renilla reference signal, replicate 1: 731; Renilla reference signal, replicate 2: 3411; Outcome: inactive

For Rab26 [DRSC11837], what does the deposit list?
firefly Hh reporter signal, replicate 1: 61671; firefly Hh reporter signal, replicate 2: 38756; Renilla reference signal, replicate 1: 2027; Renilla reference signal, replicate 2: 834; Outcome: inactive

How did the screen score Rab26 [DRSC11838]?
firefly Hh reporter signal, replicate 1: 85282; firefly Hh reporter signal, replicate 2: 93259; Renilla reference signal, replicate 1: 2693; Renilla reference signal, replicate 2: 2505; Outcome: inactive

For Rab26 [DRSC11839], what does the deposit list?
firefly Hh reporter signal, replicate 1: 92992; firefly Hh reporter signal, replicate 2: 1.34e5; Renilla reference signal, replicate 1: 2476; Renilla reference signal, replicate 2: 3782; Outcome: inactive

For CG1907 [DRSC15399], how do the results read?
firefly Hh reporter signal, replicate 1: 1.22e5; firefly Hh reporter signal, replicate 2: 1.05e5; Renilla reference signal, replicate 1: 2992; Renilla reference signal, replicate 2: 3003; Outcome: inactive

Entries above whose target name begins with R or r:
Rab26 [DRSC11837] | firefly Hh reporter signal, replicate 1: 61671; firefly Hh reporter signal, replicate 2: 38756; Renilla reference signal, replicate 1: 2027; Renilla reference signal, replicate 2: 834; Outcome: inactive
Rab26 [DRSC11838] | firefly Hh reporter signal, replicate 1: 85282; firefly Hh reporter signal, replicate 2: 93259; Renilla reference signal, replicate 1: 2693; Renilla reference signal, replicate 2: 2505; Outcome: inactive
Rab26 [DRSC11839] | firefly Hh reporter signal, replicate 1: 92992; firefly Hh reporter signal, replicate 2: 1.34e5; Renilla reference signal, replicate 1: 2476; Renilla reference signal, replicate 2: 3782; Outcome: inactive
